We go through two molecules from article PMC11576107.

Sequences of proteins named here, by UniProt entry; tags and fusion partners are left off.
UniProt Q684P5: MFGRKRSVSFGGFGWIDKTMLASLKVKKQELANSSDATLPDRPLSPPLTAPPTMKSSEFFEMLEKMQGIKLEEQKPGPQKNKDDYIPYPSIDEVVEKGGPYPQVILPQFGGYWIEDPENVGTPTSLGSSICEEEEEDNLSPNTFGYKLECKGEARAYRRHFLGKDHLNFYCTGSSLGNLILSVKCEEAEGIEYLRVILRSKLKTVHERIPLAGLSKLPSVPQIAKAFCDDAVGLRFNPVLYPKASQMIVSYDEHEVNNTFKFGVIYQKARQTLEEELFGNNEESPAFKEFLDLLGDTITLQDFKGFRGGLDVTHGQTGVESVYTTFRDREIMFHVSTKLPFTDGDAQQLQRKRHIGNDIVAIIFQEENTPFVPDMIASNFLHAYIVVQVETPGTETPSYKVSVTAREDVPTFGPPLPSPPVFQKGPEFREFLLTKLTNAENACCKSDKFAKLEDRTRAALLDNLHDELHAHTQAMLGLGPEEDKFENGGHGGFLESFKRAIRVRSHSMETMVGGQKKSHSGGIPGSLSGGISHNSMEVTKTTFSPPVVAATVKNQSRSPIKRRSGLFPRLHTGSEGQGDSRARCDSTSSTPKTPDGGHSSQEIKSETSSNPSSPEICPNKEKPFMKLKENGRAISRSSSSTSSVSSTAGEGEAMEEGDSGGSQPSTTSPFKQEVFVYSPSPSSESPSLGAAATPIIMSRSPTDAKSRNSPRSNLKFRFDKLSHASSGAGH
UniProt P49674: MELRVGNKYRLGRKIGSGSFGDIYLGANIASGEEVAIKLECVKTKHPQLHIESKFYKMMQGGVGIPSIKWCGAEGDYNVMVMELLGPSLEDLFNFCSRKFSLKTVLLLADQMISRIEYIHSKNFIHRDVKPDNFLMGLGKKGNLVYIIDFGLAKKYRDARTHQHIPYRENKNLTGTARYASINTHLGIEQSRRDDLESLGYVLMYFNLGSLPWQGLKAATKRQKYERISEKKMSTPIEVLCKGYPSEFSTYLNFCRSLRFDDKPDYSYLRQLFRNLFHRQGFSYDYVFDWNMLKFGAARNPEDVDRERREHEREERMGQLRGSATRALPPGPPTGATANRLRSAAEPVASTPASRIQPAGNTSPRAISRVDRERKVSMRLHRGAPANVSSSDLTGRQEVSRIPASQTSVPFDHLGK

One assay deals with T1, myc-xDvl2 (Xenopus) (UniProt P51142).
T1 sequence: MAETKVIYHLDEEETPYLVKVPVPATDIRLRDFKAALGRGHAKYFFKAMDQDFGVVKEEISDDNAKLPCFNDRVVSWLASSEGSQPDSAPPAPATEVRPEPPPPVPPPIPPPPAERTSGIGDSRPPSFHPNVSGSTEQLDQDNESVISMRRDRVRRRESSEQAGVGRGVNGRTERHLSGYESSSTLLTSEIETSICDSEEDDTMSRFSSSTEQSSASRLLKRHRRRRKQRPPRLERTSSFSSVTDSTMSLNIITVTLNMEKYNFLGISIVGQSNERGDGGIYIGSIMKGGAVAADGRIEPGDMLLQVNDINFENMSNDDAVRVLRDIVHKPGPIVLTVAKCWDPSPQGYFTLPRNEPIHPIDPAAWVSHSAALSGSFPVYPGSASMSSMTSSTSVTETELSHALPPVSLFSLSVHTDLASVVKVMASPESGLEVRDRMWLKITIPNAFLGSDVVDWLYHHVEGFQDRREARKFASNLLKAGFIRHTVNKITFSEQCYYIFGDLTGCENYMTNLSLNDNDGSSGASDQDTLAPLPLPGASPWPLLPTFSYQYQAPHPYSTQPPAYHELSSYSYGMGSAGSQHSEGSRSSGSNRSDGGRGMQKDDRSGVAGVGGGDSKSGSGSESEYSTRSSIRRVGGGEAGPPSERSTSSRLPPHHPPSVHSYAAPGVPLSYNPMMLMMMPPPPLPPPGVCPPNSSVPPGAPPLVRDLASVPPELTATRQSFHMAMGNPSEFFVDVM
The experiment in a line: co-IP; MDCK cells transfected 24 h; lysis buffer 50 mM Tris pH 7.5, 150 mM NaCl, 1 mM EDTA, 0.5% NP40; IP with Flag M2, GFP or myc antibody and protein G sepharose, or Flag M2 beads; Western blot. (Immunoblotting shows a protein as a band on a membrane.)

The next assay deals with hRap1GAP2-Flag (human) (UniProt Q684P5). The assay is described as above.

These are yes or no findings as the source states them, for the method shown. In cells and extracts the contact can be indirect. Some binding calls cover weakened binding; strength is not graded here. Where a sequence is shown, tags or fusion partners need not be part of it.

As to “hCK1ε (from UniProt P49674 1-416) (enzyme)”, the binding entry with myc-xDvl2 (Xenopus) was “binds”.

B1: myc-xDvl2 (protein, UniProt P51142 1-736)
chain: MAETKVIYHLDEEETPYLVKVPVPATDIRLRDFKAALGRGHAKYFFKAMDQDFGVVKEEISDDNAKLPCFNDRVVSWLASSEGSQPDSAPPAPATEVRPEPPPPVPPPIPPPPAERTSGIGDSRPPSFHPNVSGSTEQLDQDNESVISMRRDRVRRRESSEQAGVGRGVNGRTERHLSGYESSSTLLTSEIETSICDSEEDDTMSRFSSSTEQSSASRLLKRHRRRRKQRPPRLERTSSFSSVTDSTMSLNIITVTLNMEKYNFLGISIVGQSNERGDGGIYIGSIMKGGAVAADGRIEPGDMLLQVNDINFENMSNDDAVRVLRDIVHKPGPIVLTVAKCWDPSPQGYFTLPRNEPIHPIDPAAWVSHSAALSGSFPVYPGSASMSSMTSSTSVTETELSHALPPVSLFSLSVHTDLASVVKVMASPESGLEVRDRMWLKITIPNAFLGSDVVDWLYHHVEGFQDRREARKFASNLLKAGFIRHTVNKITFSEQCYYIFGDLTGCENYMTNLSLNDNDGSSGASDQDTLAPLPLPGASPWPLLPTFSYQYQAPHPYSTQPPAYHELSSYSYGMGSAGSQHSEGSRSSGSNRSDGGRGMQKDDRSGVAGVGGGDSKSGSGSESEYSTRSSIRRVGGGEAGPPSERSTSSRLPPHHPPSVHSYAAPGVPLSYNPMMLMMMPPPPLPPPGVCPPNSSVPPGAPPLVRDLASVPPELTATRQSFHMAMGNPSEFFVDVM
With B1, the binding entry in the assay with hRap1GAP2-Flag (human) was “binds”.
